No constants are given. Whether binding was seen depends on the method and setting. Some entries that bind do so weakly or less than the wild type.
How the values were obtained:
[1] = biological target: Human c-Met ECD (Flag and strep tag) (human) (UniProt P08581); test: SPR; HGF coupled on CM-5 chip, c-Met protein at 10 µg/ml injected
[2] = biological target: LS4 (aa1-348) (llama/human chimera) (UniProt P08581); test: SPR; HGF coupled on CM-5 chip, c-Met chimera at 10 µg/ml injected
[3] = biological target: LI8 (aa540-909) (llama/human chimera) (UniProt P08581); test: as above
[4] = biological target: LI10 (aa608-909) (llama/human chimera) (UniProt P08581); test: as above
[5] = biological target: LP6 (aa497-909) (llama/human chimera) (UniProt P08581); test: as above
[6] = biological target: LS3 (aa1-287) (llama/human chimera) (UniProt P08581); test: as above
[7] = biological target: LS2 (aa1-199) (llama/human chimera) (UniProt P08581); test: as above
[8] = biological target: LS1 (aa1-98) (llama/human chimera) (UniProt P08581); test: as above
[9] = biological target: LP7* (aa523-909) (llama/human chimera) (UniProt P08581); test: as above
[10] = biological target: LS5 (aa1-448) (llama/human chimera) (UniProt P08581); test: as above
[11] = biological target: LI9 (aa572-909) (llama/human chimera) (UniProt P08581); test: as above
[12] = biological target: LI11 (aa634-909) (llama/human chimera) (UniProt P08581); test: as above

Chains of the proteins cited; added tags and fusions are not shown. Residues count along the entry.
UniProt P14210, residues 32-728: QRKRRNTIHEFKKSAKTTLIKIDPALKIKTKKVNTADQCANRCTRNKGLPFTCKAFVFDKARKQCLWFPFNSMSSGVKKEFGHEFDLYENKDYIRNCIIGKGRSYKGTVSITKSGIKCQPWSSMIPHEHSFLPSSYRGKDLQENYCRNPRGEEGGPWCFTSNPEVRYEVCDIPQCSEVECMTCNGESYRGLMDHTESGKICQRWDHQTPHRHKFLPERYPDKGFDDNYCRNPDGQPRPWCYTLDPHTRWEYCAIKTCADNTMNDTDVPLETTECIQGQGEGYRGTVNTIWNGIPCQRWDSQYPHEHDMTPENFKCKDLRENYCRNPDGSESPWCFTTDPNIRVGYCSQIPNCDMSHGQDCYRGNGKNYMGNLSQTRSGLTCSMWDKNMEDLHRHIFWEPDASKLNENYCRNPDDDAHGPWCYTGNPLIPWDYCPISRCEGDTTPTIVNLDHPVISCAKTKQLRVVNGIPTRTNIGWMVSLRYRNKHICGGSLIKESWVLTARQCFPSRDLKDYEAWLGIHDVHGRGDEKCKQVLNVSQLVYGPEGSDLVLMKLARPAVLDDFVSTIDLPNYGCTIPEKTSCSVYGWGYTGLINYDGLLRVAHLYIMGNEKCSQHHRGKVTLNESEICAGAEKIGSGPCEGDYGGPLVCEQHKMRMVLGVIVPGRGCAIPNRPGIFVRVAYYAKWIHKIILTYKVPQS

- binding [1]: binds
- binding [2]: binds
- binding [3]: binds
- binding [4]: binds
- binding [5]: binds
- binding [6]: binds
- binding [7]: binds
- binding [8]: binds
- binding [9]: binds
- binding [10]: binds
- binding [11]: binds
- binding [12]: binds
Substance: HGF (from UniProt P14210 32-728) (ligand)
